In PubChem BioAssay AID1487 (National Center for Advancing Translational Sciences (NCATS), 2009):
The list shows a part of the results. The main result of the screen is listed elsewhere. These columns were measured beside it and carry no call. Compounds called inactive in the main read-out are mostly missing here. Potencies come from curve fits of mixed quality, noted in brackets.

Assay: qHTS Assay for Modulators of Lamin A Splicing
Settings: HeLa LMNA splicing GFP/RFP minigene ratio, 48 h
Procedure, shortened: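 Read-out is the ratio of GFP to DsRed2 object intensity, acquired by 488 nm laser-scanning cytometry on HeLa lamin A-EGFP minigene reporter cells. Compound incubation 48 hrs at 37 °C in Opti-MEM with 2% FBS; DMSO 0.5% final.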

[1] = measured here: RFP viability control channel
[2] = measured here: GFP splicing reporter channel

Row | SMILES | AC50 [1] | AC50 [2]
1 | CCOc1ccc(-c2cc(C(=O)NC(C)c3ccccc3)c3ccccc3n2)cc1 (stereo not drawn) | 0.00355 µM [falling, full curve, poor fit] | –
2 | CS(=O)(=O)N(CC(=O)NCc1ccco1)c1ccccc1Cl | – | 25.1 µM [rising, single point]
3 | c1ccc2c(N3CCNCC3)nc(-c3ccoc3)nc2c1 | 17.8 µM [rising, partial curve] | 14.1 µM [rising, single point]
4 | CCOC(=O)[C@@H](N)CS | 4.47 µM [rising, full curve, poor fit] | 0.891 µM [falling, single point]
5 | COc1cc(Cl)c(C)cc1NC(=O)C1CCN(c2nc3ccccc3n3cccc23)CC1 | 22.4 µM [falling, partial curve] | 22.4 µM [falling, partial curve, poor fit]
6 | COc1ccc(-c2csc3ncn(-c4ccccc4OC)c(=O)c23)cc1OC | 12.6 µM [falling, single point] | 17.8 µM [falling, single point]
7 | COc1ccc(OC)c(NS(=O)(=O)c2ccc3c(c2)C(C)(C)C(=O)N3C)c1 | – | 6.31 µM [rising, single point]
8 | NC(=O)C1CCN(C(=O)c2ccc(NC(=O)c3nsc4ccccc34)cc2)CC1 | 5.62 µM [falling, single point] | –
9 | COc1ccccc1-n1c(SCC(=O)c2ccc(O)cc2O)nc2cc([N+](=O)[O-])ccc21 | 14.1 µM [rising, partial curve] | –
10 | O=C(Nc1ccc(CSc2ccccc2)cc1)c1ccc(CN2CCOCC2)cc1 | 1 µM [rising, full curve] | 0.2 µM [rising, full curve, poor fit]
11 | Cn1c(-c2cc3c(C(F)(F)F)nn(C)c3s2)n[nH]c1=S | 2 µM [rising, full curve, poor fit] | –
12 | Cc1cccc(NC(=O)C2CCCN(S(=O)(=O)c3c(C)nn(C)c3C)C2)n1 (stereo not drawn) | 11.2 µM [rising, partial curve] | –
13 | Cn1c(CCN2CCOCC2)nc2cc(NC(=O)COc3ccc(Cl)cc3)ccc21 | 20 µM [rising, single point] | –
14 | Cc1cc(C)nc(SC(C)CNS(=O)(=O)c2ccccc2)n1 (stereo not drawn) | 35.5 µM [rising, partial curve, poor fit] | –
15 | C(=C1/CCCC2=C1Nc1ncnn1C2c1ccccc1)/c1ccccc1 (stereo not drawn) | 5.62 µM [falling, single point] | 3.16 µM [falling, partial curve]
16 | COC(=O)c1cccc(Cn2c(Cl)c(/C=N/Nc3ccccc3C)sc2=O)c1 | 15.8 µM [rising, single point] | 15.8 µM [rising, single point]
17 | O=C(c1ccccc1)N1CCN(CCc2ccncc2)CC1 | – | 3.55 µM [rising, full curve]
18 | OC[C@H]1O[C@@H]2O[C@H]3[C@H](O)[C@@H](O)[C@@H](O[C@H]4[C@H](O)[C@@H](O)[C@@H](O[C@H]5[C@H](O)[C@@H](O)[C@@H](O[C@H]6[C@H](O)[C@@H](O)[C@@H](O[C@H]7[C@H](O)[C@@H](O)[C@@H](O[C@H]1[C@H](O)[C@H]2O)O[C@@H]7CO)O[C@@H]6CO)O[C@@H]5CO)O[C@@H]4CO)O[C@@H]3CO | 1.26 µM [falling, partial curve, poor fit] | –
19 | COC(=O)c1sccc1N/N=C/c1ccc(OC)c(OC)c1OC | 35.5 µM [rising, single point] | –
20 | CCN(CC)S(=O)(=O)c1ccc(O)c(NC(=O)c2ccc(N3CCOCC3)c([N+](=O)[O-])c2)c1 | 7.08 µM [rising, partial curve] | 8.91 µM [rising, partial curve]
21 | O=C(Nc1nnc(S(=O)(=O)N2CCCc3ccccc32)s1)c1cccc(Cl)c1 | – | 0.00355 µM [rising, full curve, poor fit]
22 | COc1cc(C(=O)NCC(=O)OCc2cc(=O)oc3c(C)c(C)ccc23)cc(OC)c1OC | 0.631 µM [falling, full curve, poor fit] | –
23 | COc1ccc(-c2[nH]ncc2CN2CCC(OCc3ccccc3)CC2)c(F)c1 | 22.4 µM [falling, single point] | 12.6 µM [falling, single point]
24 | CCc1cccc(C)c1NS(=O)(=O)c1c(C(=O)N2CCC(C)CC2)c(C)n(C)c1C | 0.398 µM [falling, single point] | 5.62 µM [rising, single point]
25 | CN(c1c[nH]c(=O)[nH]c1=O)C1CCCCC1 | – | 31.6 µM [rising, single point]
26 | COc1ccc(OC(C)C(=O)Nc2ccccc2F)cc1 (stereo not drawn) | – | 0.631 µM [rising, full curve]
27 | COc1cc(/C=N/N=C(N)N)ccc1OCc1ccccc1Cl | 0.00447 µM [rising, full curve] | –

Row | SMILES | AC50 [1] | AC50 [2]
28 | C/C(=N\NC(=O)c1[nH]c2c([N+](=O)[O-])cc(C)cc2c1-c1ccccc1)c1cccnc1 | – | 3.55 µM [falling, single point]
29 | O=C(Cc1cccs1)NCCCc1ccccc1 | – | 35.5 µM [falling, single point]
30 | N#Cc1cnn2c(N)c(-c3ccc(Cl)cc3)cnc12 | – | 0.0708 µM [rising, full curve, poor fit]
31 | CCOc1ccc2[nH]c(=O)c(C(c3nnnn3Cc3ccco3)N3CCN(C)CC3)cc2c1 (stereo not drawn) | 17.8 µM [falling, partial curve, poor fit] | 6.31 µM [falling, single point]
32 | Cc1ccc(Oc2nc(CN3CCOCC3)nc3sc4c(c23)CCC(C)C4)cc1 (stereo not drawn) | 2 µM [rising, partial curve, poor fit] | –
33 | CCc1ccc(NC(=O)N2CCOc3ccc(Cl)cc32)cc1 | – | 0.708 µM [rising, full curve, poor fit]
34 | COc1cc(C2C(C#N)=C(N)Oc3c2ccc2ccccc32)ccc1OCC(=O)Nc1ccccc1C (stereo not drawn) | 35.5 µM [falling, single point] | –
35 | Cc1[nH]nc2c1C(c1ccc(-c3ccc(Cl)cc3)o1)C(C#N)=C(N)O2 (stereo not drawn) | 11.2 µM [rising, partial curve] | 7.08 µM [rising, partial curve, poor fit]
36 | Nc1ccc(NC(=O)c2ccc(C(=O)Nc3ccc(N)cc3)cc2)cc1 | 35.5 µM [falling, single point] | 2 µM [falling, partial curve, poor fit]
37 | Nc1nnc(SCCCC(=O)c2ccc(Br)cc2)s1 | 0.141 µM [rising, full curve, poor fit] | –
38 | CCCCN(CC)C(=O)CSc1nc2n[nH]c(C)c2c(=N)n1-c1cccc(Cl)c1 | 0.00631 µM [falling, full curve] | 0.00447 µM [falling, full curve, poor fit]
39 | CC(C)(C)c1ccc(/C=C/C(=O)c2ccc(NC3=NCCCS3)cc2)cc1 | 35.5 µM [falling, single point] | 11.2 µM [falling, partial curve, poor fit]
40 | Cc1ccc(Cl)cc1N1CCN(S(=O)(=O)c2ccc3c(c2)oc(=O)n3C)CC1 | 14.1 µM [rising, partial curve] | 3.55 µM [rising, partial curve, poor fit]
41 | O=C(CNC(=O)c1ccco1)NCC(=O)OCc1ccccc1Br | – | 0.398 µM [falling, single point]
42 | O=C(NCc1ccc2c(c1)OCO2)c1ccc(CSCc2cccc(Cl)c2)o1 | 22.4 µM [rising, single point] | 35.5 µM [rising, single point]
43 | CN(c1ccc(C(=O)N2CCN(c3ccc(F)cc3)CC2)cc1)S(C)(=O)=O | 3.16 µM [rising, single point] | –
44 | CCN(CC(=O)NC(C)C)C(=O)[C@@H](NC(=O)c1ccco1)C(C)C | 3.98 µM [rising, full curve, poor fit] | –
45 | CC(=O)Nc1ccc(/C=N/N2CCCCC2)cc1 | 0.0794 µM [falling, full curve, poor fit] | –
46 | O=C(NC(=S)Nc1ccccn1)c1ccco1 | 7.94 µM [rising, partial curve, poor fit] | –
47 | Nc1nc(SCC(=O)NCCc2ccccc2)[nH]c(=O)c1-c1ccccc1 | 0.178 µM [falling, full curve, poor fit] | –
48 | O=C(Nc1ccn(Cc2c(F)c(F)cc(F)c2F)n1)c1ccc(COc2ccc(Cl)cc2Cl)o1 | 15.8 µM [rising, single point] | 14.1 µM [rising, partial curve, poor fit]
49 | COC(=O)c1[nH]nc2c1C(=O)N(C1CCCCC1)C2=O | – | 14.1 µM [rising, single point]
50 | Cc1ccccc1-c1cc2c(nn1)-c1ccccc1C2=O | 35.5 µM [falling, single point] | 35.5 µM [falling, single point]
51 | C/C(=N/NC(=O)c1ccco1)c1ccc(NC(=O)c2ccc(F)cc2)cc1 | – | 35.5 µM [rising, single point]
52 | CCc1c(C)nc2ncnn2c1N1CCCC(C(=O)NCCc2ccc(OC)cc2)C1 (stereo not drawn) | 17.8 µM [rising, single point] | –
53 | COc1cc(/C=C(\NC(C)=O)C(=O)O)cc(OC)c1OC | 0.00447 µM [falling, full curve, poor fit] | 3.55 µM [falling, single point]

Gathered by group: the compounds so far with a Cl atom (13)
Row | SMILES | AC50 [1] | AC50 [2]
2 | CS(=O)(=O)N(CC(=O)NCc1ccco1)c1ccccc1Cl | – | 25.1 µM [rising, single point]
5 | COc1cc(Cl)c(C)cc1NC(=O)C1CCN(c2nc3ccccc3n3cccc23)CC1 | 22.4 µM [falling, partial curve] | 22.4 µM [falling, partial curve, poor fit]
13 | Cn1c(CCN2CCOCC2)nc2cc(NC(=O)COc3ccc(Cl)cc3)ccc21 | 20 µM [rising, single point] | –
16 | COC(=O)c1cccc(Cn2c(Cl)c(/C=N/Nc3ccccc3C)sc2=O)c1 | 15.8 µM [rising, single point] | 15.8 µM [rising, single point]
21 | O=C(Nc1nnc(S(=O)(=O)N2CCCc3ccccc32)s1)c1cccc(Cl)c1 | – | 0.00355 µM [rising, full curve, poor fit]
27 | COc1cc(/C=N/N=C(N)N)ccc1OCc1ccccc1Cl | 0.00447 µM [rising, full curve] | –
30 | N#Cc1cnn2c(N)c(-c3ccc(Cl)cc3)cnc12 | – | 0.0708 µM [rising, full curve, poor fit]
33 | CCc1ccc(NC(=O)N2CCOc3ccc(Cl)cc32)cc1 | – | 0.708 µM [rising, full curve, poor fit]
35 | Cc1[nH]nc2c1C(c1ccc(-c3ccc(Cl)cc3)o1)C(C#N)=C(N)O2 (stereo not drawn) | 11.2 µM [rising, partial curve] | 7.08 µM [rising, partial curve, poor fit]
38 | CCCCN(CC)C(=O)CSc1nc2n[nH]c(C)c2c(=N)n1-c1cccc(Cl)c1 | 0.00631 µM [falling, full curve] | 0.00447 µM [falling, full curve, poor fit]
40 | Cc1ccc(Cl)cc1N1CCN(S(=O)(=O)c2ccc3c(c2)oc(=O)n3C)CC1 | 14.1 µM [rising, partial curve] | 3.55 µM [rising, partial curve, poor fit]
42 | O=C(NCc1ccc2c(c1)OCO2)c1ccc(CSCc2cccc(Cl)c2)o1 | 22.4 µM [rising, single point] | 35.5 µM [rising, single point]
48 | O=C(Nc1ccn(Cc2c(F)c(F)cc(F)c2F)n1)c1ccc(COc2ccc(Cl)cc2Cl)o1 | 15.8 µM [rising, single point] | 14.1 µM [rising, partial curve, poor fit]
